Assay results published in PMC3458851.
No constants are given. Whether binding was seen depends on the method and setting. In cells and extracts the contact can be indirect. Some results given as binding are weak or reduced against the parent protein; the word gives no strength.

Amino acid sequences for entries named in this document (tags omitted).
UniProt P49841: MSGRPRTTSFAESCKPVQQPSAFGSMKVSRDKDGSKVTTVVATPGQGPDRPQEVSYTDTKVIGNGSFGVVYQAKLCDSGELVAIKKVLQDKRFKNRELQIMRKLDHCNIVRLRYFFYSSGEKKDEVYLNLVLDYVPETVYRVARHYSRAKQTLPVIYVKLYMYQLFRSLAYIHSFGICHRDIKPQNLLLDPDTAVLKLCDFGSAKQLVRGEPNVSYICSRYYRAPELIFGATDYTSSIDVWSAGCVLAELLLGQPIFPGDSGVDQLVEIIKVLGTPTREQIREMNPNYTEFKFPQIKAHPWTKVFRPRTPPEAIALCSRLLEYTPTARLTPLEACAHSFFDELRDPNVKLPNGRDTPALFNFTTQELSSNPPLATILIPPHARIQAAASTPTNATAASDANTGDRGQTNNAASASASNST

Molecular target: T1, SARI (suppressor of AP-1, regulated by IFN) (human) (UniProt Q8N1L9)
T1 sequence: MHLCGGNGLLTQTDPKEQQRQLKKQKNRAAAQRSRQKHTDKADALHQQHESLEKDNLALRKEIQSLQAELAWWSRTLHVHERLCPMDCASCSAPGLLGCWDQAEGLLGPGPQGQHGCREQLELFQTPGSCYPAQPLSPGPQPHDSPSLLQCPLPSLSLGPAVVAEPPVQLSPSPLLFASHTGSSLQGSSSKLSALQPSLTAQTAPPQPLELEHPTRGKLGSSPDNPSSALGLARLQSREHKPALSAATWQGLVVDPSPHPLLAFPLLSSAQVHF
Assay: co-IP; lysates of GLC-82 cells transfected with control vector or SARI; lysis buffer 50 mM Tris-HCl pH 7.5, 150 mM NaCl, 0.1% Triton X-100, 1 mM EDTA, on ice; immunoprecipitated with GSK-3β, PP2A or SARI antibodies, western blot with SARI, Flag, PP2A or GSK3β antibodies

binding: binds
Substance: Glycogen synthase kinase (GSK)-3β (from UniProt P49841 1-420) (enzyme)
